Measured values as given in US5776685A, “Protein kinase C assay” (Joslin Diabetes Center, priority 1996, dated 1998).

System: bovine PKC alpha
Experiment: PKC catalytic activity in vitro (phosphorylation of [ser25]PKC19-31 in detergent cell extracts)
Assay type: biochemical
Description: FIG. 4 is a graph which compares PKC mutant and wild type catalytic activities in vitro. […] Catalytic activity was stimulated by combinations of phosphatidylserine (PS), the phorbol ester PMA and calcium ions (Ca^2+). PS, open; PMA+PS, solid; Ca^2+ +PS, diagonally striped.
Cell lysis. About 6×10^8 expressing cells were washed in PBS and were resuspended in 1 ml lysis buffer containing 1% Triton X100, 50 mM Hepes pH 7.4, 15-mM NaC1, 5 mM EDTA, 5 mM EGTA, 10 μg/ml pepstatin, 40 μg/ml leupeptin, 10 μg/ml aprotinin and 200 μg/ml PMSF. Cell suspensions mixed with the same volume of acid washed glass beads (450-500 μm) were lysed mechanically by six 30 second vortexing steps interrupted by cooling on ice for at least 30 second in 50 ml screw cap polypropylene tubes. The lysate was cleared by 4,000 g centrifugation for 15 minutes at 4 degrees C and stored at […] for up to several weeks.
PKC catalytic activity. […] Phosphatidylserine in chloroform, with or without PMA was evaporated under N2 to dryness, resuspended in 20 mM Tris pH 7.5, mixed and sonicated at 4 degrees C for 45 seconds before use. To terminate the reaction the sample was placed on phosphocellulose paper (Whatman P81) which was repeatedly washed in 75 mM phosphoric acid. Bound radioactivity was determined by liquid scintillation spectroscopy.

Question: With `CN[C@@H]1C[C@H]2O[C@@](C)([C@@H]1OC)n1c3ccccc3c3c4c(c5c6ccccc6n2c5c31)C(=O)NC4` [staurosporine, reference compound] as the compound, how does the “inhibition of PKC alpha catalytic activity” value read?
Answer: The value was “efficiently inhibited”.
